These are yes or no findings as the source states them, for the method shown. Binding can be weak; no strength is given.

The target in assay [1] is T1, Cul3_(Soma), somatic isoform of Cullin-3, two-hybrid bait (Drosophila) (UniProt Q9V475).
T1 sequence: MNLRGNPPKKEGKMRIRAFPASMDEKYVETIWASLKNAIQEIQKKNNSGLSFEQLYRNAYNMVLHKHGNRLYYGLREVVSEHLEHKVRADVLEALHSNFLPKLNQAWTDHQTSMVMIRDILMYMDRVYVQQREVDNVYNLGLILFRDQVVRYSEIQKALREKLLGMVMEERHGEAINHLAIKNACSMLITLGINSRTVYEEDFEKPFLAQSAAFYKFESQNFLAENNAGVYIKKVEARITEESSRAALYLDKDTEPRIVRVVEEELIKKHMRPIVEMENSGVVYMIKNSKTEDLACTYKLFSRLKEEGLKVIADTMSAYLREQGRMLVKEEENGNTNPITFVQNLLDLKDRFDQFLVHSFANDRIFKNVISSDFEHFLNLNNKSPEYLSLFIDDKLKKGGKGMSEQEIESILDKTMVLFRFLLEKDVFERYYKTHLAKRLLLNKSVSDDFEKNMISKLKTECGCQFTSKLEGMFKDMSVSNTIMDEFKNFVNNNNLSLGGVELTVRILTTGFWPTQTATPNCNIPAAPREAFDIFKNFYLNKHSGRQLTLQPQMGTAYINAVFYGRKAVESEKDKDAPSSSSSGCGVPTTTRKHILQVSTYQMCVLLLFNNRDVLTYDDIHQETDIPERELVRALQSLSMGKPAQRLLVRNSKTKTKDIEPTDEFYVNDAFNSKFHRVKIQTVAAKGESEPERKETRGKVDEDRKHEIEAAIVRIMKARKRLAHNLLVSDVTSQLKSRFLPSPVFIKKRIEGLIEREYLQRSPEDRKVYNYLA
Nature of the assay: two-hybrid; β-galactosidase (LacZ) filter assay; isolated prey clones transformed into yeast strain Y187 pre-transformed with the bait constructs.

In assay [2] the target is T1, Cul3_(Soma), somatic isoform of Cullin-3, two-hybrid bait (Drosophila). Nature of the assay: two-hybrid; nutrient-omitted medium assay: growth on plates lacking leucine, tryptophan, histidine and adenine (−4 plates); Klhl10 shown after 14 d.

For the substance “Drosophila orthologue of Spop (CG9924), two-hybrid prey”, the binding entry in assay [1] and in assay [2] was “binds” throughout.

The values above are taken from article PMC1976628.
